Source: the supplement of paper PMC3334620
Whole data set: some 33,000 sequences, median “E-score (-0.5 to 0.5)” near -0.015, cut for the highest 2% near 0.3. This is one part of the list.

target: T1, Abf1 (UniProt P14164); assay: PBM E-score (8-mer binding enrichment) (E-score (-0.5 to 0.5)); higher = stronger / more preferred TF binding; settings: protein concentration: 200 nM; construct: GST-full length
T1 sequence: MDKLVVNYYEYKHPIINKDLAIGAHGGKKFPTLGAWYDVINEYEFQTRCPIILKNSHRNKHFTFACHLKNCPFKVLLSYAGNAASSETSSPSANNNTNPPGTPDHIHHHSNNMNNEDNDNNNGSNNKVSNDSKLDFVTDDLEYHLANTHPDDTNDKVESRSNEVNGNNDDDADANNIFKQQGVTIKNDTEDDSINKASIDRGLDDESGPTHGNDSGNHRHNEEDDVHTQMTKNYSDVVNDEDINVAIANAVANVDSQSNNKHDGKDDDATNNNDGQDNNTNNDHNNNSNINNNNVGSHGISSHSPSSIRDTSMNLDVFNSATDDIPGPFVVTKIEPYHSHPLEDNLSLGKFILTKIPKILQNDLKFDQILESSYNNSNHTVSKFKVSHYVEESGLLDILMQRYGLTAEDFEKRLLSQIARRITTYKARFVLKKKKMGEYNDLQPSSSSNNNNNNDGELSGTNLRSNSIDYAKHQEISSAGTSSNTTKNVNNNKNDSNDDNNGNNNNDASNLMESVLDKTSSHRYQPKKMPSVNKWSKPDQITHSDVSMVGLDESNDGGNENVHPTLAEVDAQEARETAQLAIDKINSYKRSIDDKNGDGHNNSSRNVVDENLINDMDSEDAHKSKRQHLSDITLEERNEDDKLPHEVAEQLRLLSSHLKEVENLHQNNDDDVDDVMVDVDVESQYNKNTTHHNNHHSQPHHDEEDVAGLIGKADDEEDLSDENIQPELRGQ
Summary of the method: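 Masliner-normalised scans of fluorescent anti-GST signal were the basis for scoring. That signal came from GST-tagged yeast transcription factors applied at about 100-200 nM to double-stranded universal all-10-mer Agilent arrays on fresh or once-stripped slides. Each ungapped eight-base word, pooled with its reverse complement, received an E-score from the Universal PBM Analysis Suite.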

Compared with CCAGTTCG, CTTACGCC is lower in “PBM E-score” value: 0.119 for the first, -0.0903 for the second.

Going from ATCGGGTA to TACATCGA, the “PBM E-score” value rises from -0.0907 to -0.0815.

Going from ACGCTGAC to CAGGCCCA, the “PBM E-score” value falls from 0.0473 to -0.359.

First: GTACCAAC
Second: ATCGAAAC
The “PBM E-score” value of the first is higher: 0.168 for the first, -0.0871 for the second.

Going from GCCTAAAA to CCTGCGCA, the “PBM E-score” value rises from -0.0529 to 0.0316.

Going from GCCAACCC to GAGGTTAA, the “PBM E-score” value rises from -0.305 to -0.0379.

Going from AGCGATTC to ATTTTATC, the “PBM E-score” value rises from -0.0229 to 0.264.

First: AGAGGCCC
Second: ACGCTACC
The “PBM E-score” value of the first is lower: -0.241 for the first, -0.158 for the second.

Compared with AAATACGA, ACTCCTTG is lower in “PBM E-score” value: 0.333 for the first, -0.079 for the second.

Compared with CTGCTACC, AGTGAACG is higher in “PBM E-score” value: -0.0567 for the first, 0.0418 for the second.

Compared with CCATAGTA, CAATTACC is higher in “PBM E-score” value: 0.036 for the first, 0.168 for the second.

Going from GCTTAGTA to ATTCTCGA, the “PBM E-score” value rises from 0.0807 to 0.139.

Compared with ATCGTGAC, CTTTCGCA is lower in “PBM E-score” value: 0.255 for the first, -0.158 for the second.

Compared with CTTCGGTC, ATCTAAAT is higher in “PBM E-score” value: -0.00863 for the first, 0.0481 for the second.

First: CGCCGGAG
Second: AACTAAAC
The “PBM E-score” value of the first is higher: 0.0442 for the first, -0.0643 for the second.

Compared with GCCATCGA, CAGGAGGC is lower in “PBM E-score” value: -0.072 for the first, -0.18 for the second.

Going from GGGGTCCA to ACGAGGCA, the “PBM E-score” value rises from -0.264 to -0.0591.

First: CAAGGTAG
Second: CGGTCGTA
The “PBM E-score” value of the first is lower: -0.0812 for the first, 0.0721 for the second.

Compared with GCAAAAGC, CGGCAAAA is lower in “PBM E-score” value: -0.0503 for the first, -0.0905 for the second.

Going from CACGAGGC to GATGTAGC, the “PBM E-score” value rises from 0.0559 to 0.0818.

First: GGAAGTCC
Second: ATCAGACC
The “PBM E-score” value of the first is higher: -0.125 for the first, -0.189 for the second.

Going from AATATGCA to ATCGCAAC, the “PBM E-score” value rises from -0.092 to 0.0426.

First: AATGAGCT
Second: TCTCACAA
The “PBM E-score” value of the first is higher: 0.0503 for the first, -0.0858 for the second.

First: ACCTCTTA
Second: AAAGGCTC
The “PBM E-score” value of the first is higher: 0.0377 for the first, -0.0956 for the second.

First: ATCAAAAC
Second: CGTCGATA
The “PBM E-score” value of the first is lower: 0.0447 for the first, 0.286 for the second.

Going from GACTATCA to CAGTTGGA, the “PBM E-score” value falls from 0.0884 to -0.0179.

First: CTGATTCA
Second: GAAGAGTC
The “PBM E-score” value of the first is lower: -0.235 for the first, -0.13 for the second.

First: CCCTGATA
Second: AGGGCGAG
The “PBM E-score” value of the first is higher: -0.0568 for the first, -0.208 for the second.

First: AGTAATCC
Second: ACGAGGGC
The “PBM E-score” value of the first is lower: 0.0355 for the first, 0.0879 for the second.

Compared with GCCTCATA, ACGGATGG is higher in “PBM E-score” value: -0.0715 for the first, 0.0326 for the second.

Compared with ATGTTAAA, CATTGCCC is lower in “PBM E-score” value: 0.162 for the first, -0.064 for the second.

Compared with GACAGCAA, ACTGGTCG is lower in “PBM E-score” value: 0.0485 for the first, -0.0382 for the second.

Compared with ACTCAAGC, GATCGCAC is higher in “PBM E-score” value: -0.079 for the first, 0.0529 for the second.

First: CTGGACCC
Second: ACGATCTA
The “PBM E-score” value of the first is lower: -0.279 for the first, 0.28 for the second.

Going from CGGTAAAG to ATCCGCGG, the “PBM E-score” value rises from -0.0501 to 0.0986.

Going from CTACCACC to GTGACCCA, the “PBM E-score” value rises from -0.163 to 0.0879.

Going from CGTGCACG to AATTGAAT, the “PBM E-score” value falls from 0.419 to 0.0581.

First: CCACCACC
Second: GATGTTTA
The “PBM E-score” value of the first is lower: -0.111 for the first, 0.0523 for the second.

Compared with ATAATAGA, CGACCACC is lower in “PBM E-score” value: 0.159 for the first, 0.0636 for the second.

Going from CATACATA to AATCGAGT, the “PBM E-score” value falls from 0.0675 to -0.042.

First: ATACACGA
Second: AGACAGGC
The “PBM E-score” value of the first is higher: 0.179 for the first, -0.243 for the second.

Compared with AAGGTCCT, AGTGTTCG is higher in “PBM E-score” value: -0.181 for the first, -0.0474 for the second.

Going from CGATACCC to AATAACGA, the “PBM E-score” value rises from 0.0289 to 0.325.

Going from TAAAATTA to AGAACCCG, the “PBM E-score” value falls from 0.165 to -0.194.

Going from ATTTATCC to TCATAACA, the “PBM E-score” value falls from 0.317 to 0.117.

First: ATCTCTAA
Second: CCTTACGA
The “PBM E-score” value of the first is higher: 0.0536 for the first, 0.0463 for the second.

First: GAAATTAA
Second: CACTCTCA
The “PBM E-score” value of the first is higher: 0.177 for the first, 0.00441 for the second.

First: ACAGATCA
Second: GGCGTGGA
The “PBM E-score” value of the first is higher: 0.188 for the first, -0.174 for the second.

First: CACATAGA
Second: CACAGACC
The “PBM E-score” value of the first is lower: -0.0932 for the first, -0.0678 for the second.

Going from CTCCGTTC to AATCTAGC, the “PBM E-score” value falls from -0.0907 to -0.181.

Going from GCATCAGC to TCCCAAAA, the “PBM E-score” value rises from -0.113 to 0.0198.

First: TAGCATCA
Second: AATCTGAA
The “PBM E-score” value of the first is higher: 0.0286 for the first, -0.124 for the second.

Going from CGTCTCGC to AGCAACTC, the “PBM E-score” value falls from -0.021 to -0.135.

First: ACGGCCAA
Second: CAAGCAGG
The “PBM E-score” value of the first is higher: -0.0291 for the first, -0.35 for the second.

First: GGGCTAGA
Second: AATGCTAT
The “PBM E-score” value of the first is lower: -0.192 for the first, 0.164 for the second.

Going from AAACCGTC to TACTTCGA, the “PBM E-score” value rises from 0.0248 to 0.178.

First: ACGTAAAC
Second: AGGCATGA
The “PBM E-score” value of the first is lower: -0.125 for the first, -0.0285 for the second.

Compared with TCGAAAAA, ACTCCTCC is lower in “PBM E-score” value: 0.157 for the first, -0.152 for the second.

Compared with TCTCCTAA, AAGCCTCA is lower in “PBM E-score” value: -0.048 for the first, -0.303 for the second.

Going from AACAGCGC to GGTTCCAA, the “PBM E-score” value rises from -0.169 to -0.0572.

First: ACAACTAG
Second: CAAATGCC
The “PBM E-score” value of the first is lower: -0.289 for the first, -0.272 for the second.

Compared with CCGAGCGA, GGGATAAC is higher in “PBM E-score” value: 0.0102 for the first, 0.0508 for the second.

Compared with AATAGGCT, AAGACCCG is lower in “PBM E-score” value: 0.0202 for the first, -0.189 for the second.

Compared with CCTGTTGC, GTCGGCAA is higher in “PBM E-score” value: -0.0345 for the first, 0.0394 for the second.

First: GGGTCTCA
Second: CTAATTGC
The “PBM E-score” value of the first is lower: -0.242 for the first, -0.0653 for the second.

First: CAGCGCCC
Second: GACCCCGA
The “PBM E-score” value of the first is higher: -0.101 for the first, -0.181 for the second.

Compared with GGGTGGAC, CGATTTGA is higher in “PBM E-score” value: -0.189 for the first, 0.0357 for the second.

Compared with AGCTGCAA, ACCGACTA is higher in “PBM E-score” value: -0.319 for the first, -0.297 for the second.

Going from ACTTTATC to GGGCCTCA, the “PBM E-score” value falls from 0.214 to -0.207.

First: GGAGCTTA
Second: GAACTCCC
The “PBM E-score” value of the first is lower: -0.248 for the first, 0.011 for the second.

First: AAGTCACA
Second: CAGACGAC
The “PBM E-score” value of the first is lower: 0.125 for the first, 0.191 for the second.

Going from ACGTTAGA to CAAACGCC, the “PBM E-score” value falls from 0.237 to 0.0828.

Compared with CCCAACAG, GTCACGAC is higher in “PBM E-score” value: -0.269 for the first, 0.261 for the second.

First: ATAACCAC
Second: AAATCAGT
The “PBM E-score” value of the first is lower: 0.108 for the first, 0.153 for the second.

First: ATTGGAGC
Second: GGAATGAC
The “PBM E-score” value of the first is lower: -0.128 for the first, 0.215 for the second.

First: GGTTCCCA
Second: CGCCGTTA
The “PBM E-score” value of the first is lower: -0.188 for the first, 0.14 for the second.

Compared with CCTCCACA, CAAGTTGC is higher in “PBM E-score” value: -0.229 for the first, 0.0577 for the second.

Compared with ATGTCTAA, AGTGATAC is higher in “PBM E-score” value: 0.194 for the first, 0.385 for the second.

First: GAACAGGA
Second: AGTACCTC
The “PBM E-score” value of the first is lower: 0.0171 for the first, 0.0185 for the second.

Compared with GTTTAACA, GTGCCTTA is lower in “PBM E-score” value: 0.0815 for the first, 0.0147 for the second.

First: AGGTCGAT
Second: GGCTTCCC
The “PBM E-score” value of the first is higher: 0.132 for the first, -0.0974 for the second.

Compared with GATACGAC, GAACCAAC is lower in “PBM E-score” value: 0.148 for the first, -0.0801 for the second.

Going from ATCCGCCA to GATATCGA, the “PBM E-score” value rises from -0.0568 to 0.271.

Compared with ACTCTTAG, GATCTCCA is higher in “PBM E-score” value: -0.0672 for the first, 0.167 for the second.

First: GACACCCA
Second: GGGCCAGA
The “PBM E-score” value of the first is higher: -0.108 for the first, -0.208 for the second.

First: AAGAATCT
Second: ACGTTCAT
The “PBM E-score” value of the first is lower: -0.115 for the first, 0.0656 for the second.
